Measurements reported in PubChem BioAssay AID1159584 (Peter MacCallum Cancer Centre, 2016).
Aim: 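Genes whose loss is lethal only together with E-cadherin loss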 (primary screen). Cell system: human MCF10A breast epithelial cells, parental and CDH1-null. Reagent: siRNA against human genes. Detection: 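Cell viability by CellTiter-Glo ATP luminescence, each line scaled to the mean of mock wells across plates, then CDH1-null over parental ratio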. Reading the numbers: CDH1-null / parental viability ratio: higher = CDH1-null cells survive relatively better than parental; CDH1-null viability vs mock: higher = more viable CDH1-null cells; parental viability vs mock: higher = more viable parental cells.
This is one part, drawn at random, of about 18,000 reagents. The record does not give: the amount of reagent, the time to read-out.

| target | CDH1-null / parental viability ratio | CDH1-null viability vs mock (fraction of mock) | parental viability vs mock (fraction of mock) |
| --- | --- | --- | --- |
| NUCLEOLIN (GeneID 4691) | 1.39 | 0.78 | 0.56 |
| PPP1R12C (GeneID 54776) | 1.16 | 0.88 | 0.76 |
| TMEM52 (GeneID 339456) | 0.9 | 0.65 | 0.72 |
| ANP32E (GeneID 81611) | 0.89 | 0.66 | 0.74 |
| ZNF596 (GeneID 169270) | 0.85 | 0.7 | 0.82 |
| GATA5 (GeneID 140628) | 0.78 | 0.67 | 0.86 |
| TCL1B (GeneID 9623) | 1.36 | 0.99 | 0.73 |
| NEFL (GeneID 4747) | 1.05 | 1.06 | 1.01 |
| AKR1C1 (GeneID 1645) | 1.21 | 0.76 | 0.63 |
| LRAT (GeneID 9227) | 1 | 0.72 | 0.72 |
| TAPT1 (GeneID 202018) | 1.12 | 0.36 | 0.32 |
| NMD3 (GeneID 51068) | 0.92 | 0.74 | 0.8 |
| PEX11A (GeneID 8800) | 0.89 | 0.42 | 0.47 |
| ENDOU (GeneID 8909) | 1.22 | 0.94 | 0.77 |
| SORT1 (GeneID 6272) | 0.69 | 0.4 | 0.58 |
| PMPCA (GeneID 23203) | 1.11 | 0.89 | 0.8 |
| NPM1 (GeneID 4869) | 1.05 | 1 | 0.95 |
| FGF3 (GeneID 2248) | 0.89 | 0.94 | 1.06 |
| TWF2 (GeneID 11344) | 1.08 | 0.92 | 0.85 |
| CRIP3 (GeneID 401262) | 0.88 | 0.8 | 0.91 |
| CCL22 (GeneID 6367) | 0.81 | 0.96 | 1.18 |
| PTPN4 (GeneID 5775) | 1.35 | 0.65 | 0.48 |
| TGS1 (GeneID 96764) | 0.81 | 0.56 | 0.69 |
| ASIC5 (GeneID 51802) | 1.22 | 0.94 | 0.77 |
| EDIL3 (GeneID 10085) | 1.27 | 0.99 | 0.78 |
| TBC1D28 (GeneID 254272) | 1.43 | 0.66 | 0.46 |
| OR51G1 (GeneID 79324) | 0.95 | 0.89 | 0.94 |
| CFAP210 (GeneID 129881) | 1.07 | 0.88 | 0.82 |
| KRT20 (GeneID 54474) | 1.13 | 0.98 | 0.87 |
| UBE2G1 (GeneID 7326) | 1.05 | 0.86 | 0.82 |
| RFX2 (GeneID 5990) | 0.82 | 0.77 | 0.94 |
| FKBP7 (GeneID 51661) | 1.04 | 1.04 | 1 |
| ZBTB18 (GeneID 10472) | 1.01 | 0.85 | 0.84 |
| SECISBP2L (GeneID 9728) | 1.16 | 0.88 | 0.76 |
| CEP120 (GeneID 153241) | 0.74 | 0.52 | 0.7 |
| KDM2B (GeneID 84678) | 0.96 | 0.81 | 0.84 |
| CRHR2 (GeneID 1395) | 0.71 | 0.77 | 1.08 |
| ELL2 (GeneID 22936) | 0.95 | 0.82 | 0.86 |
| NLRP6 (GeneID 171389) | 0.9 | 0.56 | 0.62 |
| MCF2L (GeneID 23263) | 0.84 | 0.47 | 0.56 |
| CASP4 (GeneID 837) | 0.97 | 0.72 | 0.74 |
| PEAK3 (GeneID 374872) | 1.04 | 0.48 | 0.46 |
| MCRIP2 (GeneID 84331) | 0.75 | 0.57 | 0.76 |
| GFER (GeneID 2671) | 1.02 | 0.56 | 0.55 |
| PCDH9 (GeneID 5101) | 0.87 | 0.77 | 0.89 |
| TMEM163 (GeneID 81615) | 1 | 0.62 | 0.62 |
| SERTM1 (GeneID 400120) | 1.1 | 0.89 | 0.81 |
| SSTR2 (GeneID 6752) | 0.82 | 0.88 | 1.07 |
| ATCAY (GeneID 85300) | 0.84 | 0.8 | 0.95 |
| ZNF446 (GeneID 55663) | 0.94 | 0.68 | 0.72 |
| FBXO2 (GeneID 26232) | 0.81 | 0.5 | 0.62 |
| IL1B (GeneID 3553) | 0.85 | 0.64 | 0.75 |
| TAS2R46 (GeneID 259292) | 0.83 | 0.53 | 0.64 |
| CSNK1G2 (GeneID 1455) | 0.87 | 0.9 | 1.03 |
| MRGPRE (GeneID 116534) | 1.44 | 0.98 | 0.68 |
| H2AB1 (GeneID 474382) | 0.7 | 0.56 | 0.8 |

Laid out differently: 6 of the entries above
NUCLEOLIN (GeneID 4691)
- CDH1-null / parental viability ratio: 1.39
- CDH1-null viability vs mock (fraction of mock): 0.78
- parental viability vs mock (fraction of mock): 0.56

PPP1R12C (GeneID 54776)
- CDH1-null / parental viability ratio: 1.16
- CDH1-null viability vs mock (fraction of mock): 0.88
- parental viability vs mock (fraction of mock): 0.76

TMEM52 (GeneID 339456)
- CDH1-null / parental viability ratio: 0.9
- CDH1-null viability vs mock (fraction of mock): 0.65
- parental viability vs mock (fraction of mock): 0.72

ANP32E (GeneID 81611)
- CDH1-null / parental viability ratio: 0.89
- CDH1-null viability vs mock (fraction of mock): 0.66
- parental viability vs mock (fraction of mock): 0.74

ZNF596 (GeneID 169270)
- CDH1-null / parental viability ratio: 0.85
- CDH1-null viability vs mock (fraction of mock): 0.7
- parental viability vs mock (fraction of mock): 0.82

GATA5 (GeneID 140628)
- CDH1-null / parental viability ratio: 0.78
- CDH1-null viability vs mock (fraction of mock): 0.67
- parental viability vs mock (fraction of mock): 0.86

Additional records:
| target | CDH1-null / parental viability ratio | CDH1-null viability vs mock (fraction of mock) | parental viability vs mock (fraction of mock) |
| --- | --- | --- | --- |
| SEC23A (GeneID 10484) | 0.84 | 0.48 | 0.57 |
| STARD6 (GeneID 147323) | 0.76 | 0.61 | 0.8 |
| ULBP3 (GeneID 79465) | 1.48 | 0.98 | 0.66 |
| NIM1K (GeneID 167359) | 0.95 | 0.72 | 0.76 |
| GRSF1 (GeneID 2926) | 0.88 | 0.84 | 0.96 |
| APLF (GeneID 200558) | 1.73 | 0.78 | 0.45 |
| HDC (GeneID 3067) | 0.93 | 0.7 | 0.75 |
| SCN7A (GeneID 6332) | 1.13 | 0.97 | 0.86 |
| CHD1L (GeneID 9557) | 1 | 1.05 | 1.05 |
| PLEKHM1 (GeneID 9842) | 1.24 | 0.57 | 0.46 |
| OR5AU1 (GeneID 390445) | 0.84 | 0.84 | 1 |
| GREB1 (GeneID 9687) | 0.96 | 0.96 | 1 |
| KLKB1 (GeneID 3818) | 1.29 | 0.9 | 0.7 |
| C16orf46 (GeneID 123775) | 0.83 | 0.7 | 0.84 |
| KRT79 (GeneID 338785) | 1.34 | 0.78 | 0.58 |
| MZT2B (GeneID 80097) | 0.87 | 0.68 | 0.78 |
| TREM2 (GeneID 54209) | 0.73 | 0.44 | 0.6 |
| CSAG1 (GeneID 158511) | 1.32 | 0.86 | 0.65 |
| S1PR2 (GeneID 9294) | 1.25 | 0.84 | 0.67 |
| RDX (GeneID 5962) | 1.49 | 0.82 | 0.55 |
| CRTAP (GeneID 10491) | 1.11 | 0.98 | 0.88 |
| RPP38-DT (GeneID 221060) | 1.45 | 0.64 | 0.44 |
| MYH2 (GeneID 4620) | 0.95 | 0.7 | 0.74 |
| MC1R (GeneID 4157) | 0.94 | 1.01 | 1.08 |
| EIF5 (GeneID 1983) | 1.07 | 0.86 | 0.8 |
| DCAF5 (GeneID 8816) | 0.92 | 0.7 | 0.76 |
| TOX2 (GeneID 84969) | 1.01 | 1.01 | 1 |
| CLIC4 (GeneID 25932) | 1.3 | 0.78 | 0.6 |
| ZMYND11 (GeneID 10771) | 1 | 0.96 | 0.96 |
| APC (GeneID 324) | 1.13 | 0.52 | 0.46 |
| TDRD9 (GeneID 122402) | 1.14 | 0.84 | 0.74 |
